This note sets out measurements from patent publication US7838491B2, “Self-assembly and mineralization of peptide-amphiphile nanofibers” (Northwestern University, priority 2001, dated 2010).

The data set in a line: mineralization of PA fibers on TEM grid with CaCl2 and Na2HPO4.

Peptide text beside a SMILES is read from it. * marks the point of attachment. Palmitoyl = CCCCCCCCCCCCCCCC(=O)*

For the compound `CCCCCCCCCCCCCCCC(=O)N[C@@H](CS)C(=O)N[C@@H](CS)C(=O)N[C@@H](CS)C(=O)N[C@@H](CS)C(=O)NCC(=O)NCC(=O)NCC(=O)N[C@@H](CO)C(=O)N[C@@H](CCCNC(=N)N)C(=O)NCC(=O)N[C@@H](CC(=O)O)C(=O)O` [PA 14, CCCCGGGSRGD] (Palmitoyl-CCCCGGGSRGD-OH), the “mineral observed by TEM” value was “only amorphous mineral deposit concentrate on the fibers” (20 min incubation with CaCl2 and Na2HPO4, listed as Nonphosphorylated PA); “an amorphous mineral deposit around the fibers was observed, but crystals did not form within this time frame” (20 min incubation with CaCl2 and Na2HPO4, listed as nonphosphorylated fibers); “continue to show only amorphous mineral” (30 min incubation with CaCl2 and Na2HPO4, listed as Nonphosphorylated PA); “an amorphous mineral deposit around the fibers was observed, but crystals did not form within this time frame” (30 min incubation with CaCl2 and Na2HPO4, listed as nonphosphorylated fibers).
